“And” between values parts separate entries of the source, which are not always exact repeats. Equal values may be shown once. Screen size: about 300,000 compounds; about 5,400 (1.8%) were called active. Inconclusive results, whose numbers are uncertain, are shown with a selection of clear calls. Calls come from the whole dose curve; tested in HEK293 cells. A potency beside an inconclusive call is a rough fit, not a confirmed value.
Experiment: qHTS for inhibitors of binding or entry into cells for Marburg Virus
Settings: Marburg virus pseudotyped entry inhibition, cell reporter; series mostly up to 37.8 µM
Potency is the fitted concentration of half-maximal effect.

Structure (SMILES) | Potency
Cc1cc(NS(=O)(=O)c2ccc(NC(=O)COc3ccccc3Br)cc2)no1 | inactive
Cc1nc(CNS(=O)(=O)c2ccc(Oc3ccccc3)cc2)cs1 | inconclusive: 1.46 µM [inhibitor, partial curve, poor fit]
Cc1ccc(S(=O)(=O)N2CCC(=O)N(C(COC(=O)Nc3ccccc3)Cc3ccccc3)CC2)cc1 (configuration not stated) | inconclusive: 29.1 µM [inhibitor, single point]
CCCn1c(SCC(=O)Nc2sc(C)c(C)c2C(=O)OCC)nc2c1c(=O)n(C)c(=O)n2C | inconclusive: 32.6 µM [activator, single point]
Cc1ccc(/C=N/NC(=O)C(C)Oc2ccccc2[N+](=O)[O-])s1 (configuration not stated) | inconclusive: 6.31 µM [inhibitor, partial curve, poor fit]
O=C(NCc1ccco1)c1csc2c1CCCC2 | inactive
Cc1cccc(NC(=S)NCCSc2ccc(Cl)cc2)c1 | inconclusive: 35.5 µM [inhibitor, single point]
CSc1ccc(S(=O)(=O)Nc2ccc(S(=O)(=O)Nc3ccc(C)cc3)cc2)cc1 | inconclusive: 25.9 µM [inhibitor, single point]
Cc1ccc(C(=O)N/N=C\c2ccc[nH]2)cc1[N+](=O)[O-] | active: 4.47 µM
CC1CCC(NC(=O)CCN2C(=O)C3CC=CCC3C2=O)CC1 (configuration not stated) | inconclusive: 35.5 µM [activator, single point]
Cc1ccc(Nc2nc(N)nc(CSc3nc4ccccc4s3)n2)cc1 | inactive and inconclusive: 23.1 µM [inhibitor, single point]
CS(=O)(=O)Nc1ccc(C(=O)Nc2ccccc2Cl)cc1 | inactive
Cc1ccc(-c2c[n+](CC(=O)c3ccc(Br)cc3)c3n2CCCCC3)cc1 | active: 10 µM
CC(C)Nc1nc(Cl)nc(N(C#N)CN2C(=O)c3ccccc3C2=O)n1 | active: 2.51 µM
Cc1ccc2sc(N(CCCN(C)C)C(=O)c3ccc(Br)s3)nc2c1C | active: 14.6 µM
CCN(CC)C(=O)Cn1cc([N+](=O)[O-])cc1[N+](=O)[O-] | inconclusive: 6.31 µM [inhibitor, single point]
COc1ccc(C(CNC(=O)c2oc3cc(C)c(C)cc3c2C)N2CCCCC2)cc1 (configuration not stated) | inconclusive: 17.8 µM [activator, partial curve, poor fit]
CCC(=O)N(Cc1cc(=O)[nH]c2ccccc12)c1ccccc1 | inactive
COc1ccc(CCNC(=O)Cc2ccc3c(c2)OCO3)cc1OC | inconclusive: 3.98 µM [inhibitor, single point]
CSc1nnc(C2CCN(CC(=O)Nc3ccccc3N3CCOCC3)CC2)n1C | inconclusive: 35.5 µM [activator, single point]
O=C(O)CCC(=O)NNC(=O)CCCOc1ccc(Cl)cc1Cl | inactive
Cc1c(-c2cccs2)[n+](=O)c2c(n1[O-])CCCCC2 | inactive
COc1ccc(O[C@H]2C=C[C@@H](c3ccccc3)O[C@@H]2COC(=O)CC/C(C)=N/OC[C@@H](C)[C@H](OCc2ccccc2)C(C)C)cc1 | inconclusive: 0.266 µM [inhibitor, partial curve, poor fit]

A portion taken from the entries so far:
Structure (SMILES) | Potency
COc1ccc(CCNC(=O)Cc2ccc3c(c2)OCO3)cc1OC | inconclusive: 3.98 µM [inhibitor, single point]
CSc1nnc(C2CCN(CC(=O)Nc3ccccc3N3CCOCC3)CC2)n1C | inconclusive: 35.5 µM [activator, single point]
O=C(O)CCC(=O)NNC(=O)CCCOc1ccc(Cl)cc1Cl | inactive
Cc1c(-c2cccs2)[n+](=O)c2c(n1[O-])CCCCC2 | inactive

Continued:

Structure (SMILES) | Potency
CC(C)(C)OC(=O)N1CC=C2C(C#N)=C(N)C(C#N)(C#N)[C@H](c3cccnc3)[C@H]2C1 | inactive
COc1ccc(NC(=O)C2CCCN2C(=O)Nc2ccccc2)cc1OC (configuration not stated) | inactive
CCOC(=O)c1[nH]c2ccc(Br)cc2c1NC(=O)CCN1CCC(C)CC1 | inconclusive: 18.3 µM [inhibitor, partial curve, poor fit]
OCCN(CC(O)Cn1ccc2ccccc21)CC(O)Cn1ccc2ccccc21 (configuration not stated) | inconclusive: 35.5 µM [inhibitor, partial curve, poor fit]
Cc1ccc(S(=O)(=O)c2nc(-c3ccccc3F)oc2N2CC(C)OC(C)C2)cc1 (configuration not stated) | inactive
CCN(CC)CCC(=O)NN | inconclusive: 10 µM [activator, partial curve]
CCn1cc(C(=O)OCC(=O)c2ccccc2)c(=O)c2ccc(C)nc21 | inconclusive: 22.4 µM [activator, single point]
O=C(OCc1ccccc1)N1CCc2ccccc21 | inconclusive: 1.12 µM [activator, partial curve, poor fit]
Cc1nn(Cc2ccccc2)c(Cl)c1C(=O)NC1CCCc2ccccc21 (configuration not stated) | inconclusive: 16.4 µM [inhibitor, partial curve]
CCC(=O)N1CCc2cc(S(=O)(=O)NC(CC(C)C)C(=O)Nc3cccc(C)c3C)ccc21 (configuration not stated) | inactive
CC(=O)/C=C(\C)Nc1ccc(-c2cnc(-c3ccccc3)o2)cc1 | inconclusive: 11.2 µM [inhibitor, partial curve]
Cc1cc(N(C)C)c(C#N)c(N2CCOCC2)n1 | inactive
O=C(Nc1ccccn1)c1ccco1 | inconclusive: 16.4 µM [activator, partial curve, poor fit]
COc1ccccc1C(=O)n1nc(-c2ccccc2)nc1NCc1ccc(Cl)cc1 | inconclusive: 5.62 µM [inhibitor, single point]
Nc1nc(CN2CCN(C(c3ccccc3)c3ccccc3)CC2)nc(Nc2ccccc2)n1 | inconclusive: 25.1 µM [inhibitor, single point]
O=c1c2ccccc2cnn1CCOc1cccc(Br)c1 | inconclusive: 20 µM [inhibitor, single point]
COc1ccc(OCC(O)Cn2c(=N)n(CCN3CCCCC3)c3ccccc32)cc1 (configuration not stated) | inconclusive: 17.8 µM [inhibitor, single point]
Cc1cc(=O)c(C(=O)O)nn1-c1ccccc1Cl | inconclusive: 4.47 µM [inhibitor, full curve, poor fit]
Cc1ccc(NS(=O)(=O)c2ccc3oc(=O)c4ncn(C)c4c3c2)cc1C | inconclusive: 2.24 µM [inhibitor, single point]
CCOC(=O)c1cnc2c(C)cc(C)cc2c1Nc1ccc(S(=O)(=O)Nc2ncccn2)cc1 | inconclusive: 5.62 µM [activator, single point]
CCCCN(CCCC)S(=O)(=O)c1ccc(NC(=O)CN2CCOCC2)cc1 | inactive
CCc1cc(C(=O)COc2ccccc2F)c(O)cc1O | inactive
COC(CNC(=O)C1CCCN1C(=O)OCc1ccccc1)OC (configuration not stated) | inconclusive: 14.1 µM [inhibitor, single point]

Structure (SMILES) | Potency
CC(=O)OC[C@@H]1O[C@H](CCO/N=C\[C@@H](C)[C@H](OCc2ccccc2)C(C)C)C=C[C@@H]1OC(C)=O | inconclusive: 0.0473 µM [activator, full curve, poor fit]
O=C(COC(=O)c1ccccc1)c1ccc2c(c1)OCCO2 | inconclusive: 0.708 µM [inhibitor, single point]
COCCN(C(=O)CSc1nnc(-c2ccccc2F)n1N)c1c(N)n(Cc2ccccc2)c(=O)[nH]c1=O | inconclusive: 7.08 µM [activator, partial curve, poor fit]
CCC(=O)Nc1c2c(nn1-c1ccc(C)cc1C)CSC2 | inactive
Cc1ccc(O)c(C(=O)c2cnc3c(c2)COc2ccc(C)cc2-3)c1 | inconclusive: 35.5 µM [inhibitor, single point]
Cc1ccc(OC(C)C(=O)N2CC(=O)Nc3ccccc32)c(C)c1 (configuration not stated) | inactive
Cc1cc(C(=O)CCl)c(C)n1CCc1ccc(F)cc1 | inconclusive: 17.8 µM [inhibitor, single point]
O=C(/C=C/c1ccco1)Nc1cccc(S(=O)(=O)N2CCOCC2)c1 | inconclusive: 3.66 µM [activator, single point]
CC(=O)c1cccc(NC(=O)CN2C(=O)NC(C)(C)C2=O)c1 | inconclusive: 3.55 µM [activator, single point]
COc1ccc(NC(=O)c2ccc(-c3ccccc3Cl)o2)cc1 | inconclusive: 2.91 µM [activator, full curve, poor fit]
CCc1nc2cccnc2n1-c1ccc(CC(=O)O)cc1 | inconclusive: 0.112 µM [inhibitor, full curve, poor fit]
c1ccc(N2CCN(c3nc(-c4cccs4)nc4ccccc34)CC2)cc1 | inconclusive: 28.2 µM [inhibitor, partial curve, poor fit]
COC(CNC(=O)C1CCN(C(=O)c2cc3oc(C)cc3n2Cc2c(F)cccc2Cl)CC1)OC | inconclusive: 2.82 µM [inhibitor, full curve, poor fit]
CCCCc1ccc(NC(=O)CSc2nc(=O)n(CCCN3CCOCC3)c3c2CCC3)cc1 | inconclusive: 35.5 µM [inhibitor, single point]
Cc1cc(C)n(CCC(=O)N/N=C/c2ccc(O)cc2O)n1 | active: 12.6 µM
CCCCCOc1ccc(C(=O)C(c2ccccc2)N2CCOCC2)cc1 (configuration not stated) | inconclusive: 15.8 µM [inhibitor, partial curve, poor fit]
O=C(Nc1ccc(Br)cc1)c1ccc2ncsc2c1 | inconclusive: 6.31 µM [inhibitor, full curve, poor fit]
Cc1ccc(CNC(=O)c2ccc(OCC3CCCO3)cc2)cc1 (configuration not stated) | inactive
CCOc1ccc(NC(=O)c2cccnc2Cl)c([N+](=O)[O-])c1 | inconclusive: 23.1 µM [activator, single point]
CCOc1cccc(-c2nnc3sc(COc4ccccc4)nn23)c1 | inactive
COC(=O)C(CC(=O)c1cccc(OC)c1)c1ccc(F)cc1 (configuration not stated) | inconclusive: 3.55 µM [activator, single point]
